Experimental data: paper PMC10988308
These are yes or no findings as the source states them, for the method shown. In cells and extracts the contact can be indirect. Some results given as binding are weak or reduced against the parent protein; the word gives no strength.

Biological target: Ezrin (human (endogenous in EA.hy 926)), P15311
Assay: co-IP; anti-Ezrin antibody-conjugated beads, lysate of EA.hy 926 cells, 12 h at 4 °C, blot for PODXL; cells treated with TGF-β1 or VEGF, with or without NDF (5 or 20 μM) for 24 h
Settings: remark: other sources report otherwise

B1: Podocalyxin, O00592 23-558 (protein)
chain: SPSPSPSPSQNATQTTTDSSNKTAPTPASSVTIMATDTAQQSTVPTSKANEILASVKATTLGVSSDSPGTTTLAQQVSGPVNTTVARGGGSGNPTTTIESPKSTKSADTTTVATSTATAKPNTTSSQNGAEDTTNSGGKSSHSVTTDLTSTKAEHLTTPHPTSPLSPRQPTSTHPVATPTSSGHDHLMKISSSSSTVAIPGYTFTSPGMTTTLLETVFHHVSQAGLELLTSGDLPTLASQSAGITASSVISQRTQQTSSQMPASSTAPSSQETVQPTSPATALRTPTLPETMSSSPTAASTTHRYPKTPSPTVAHESNWAKCEDLETQTQSEKQLVLNLTGNTLCAGGASDEKLISLICRAVKATFNPAQDKCGIRLASVPGSQTVVVKEITIHTKLPAKDVYERLKDKWDELKEAGVSDMKLGDQGPPEEAEDRFSMPLIITIVCMASFLLLVAALYGCCHQRLSQRKDQQRLTEELQTVENGYHDNPTLEVMETSSEMQEKKVVSLNGELGDSWIVPLDNLTKDDLDEEEDTHL
- binding: binds
